Measured values from the supplement of paper PMC12889115.
This is one part of the list. Values are raw readings; no control value is given beside them.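 Primary screen: polymyxin B was added at a level permeabilizing Salmonella outer membranes while sparing inner membranes. DMSO wells, both with and without polymyxin B, established maximum growth. Plate-to-plate variation meant each plate was ranked on its own, and the lowest-OD600 compounds were selected as hits.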

System: Salmonella enterica serovar Typhimurium SL1344
Test: bacterial growth OD600 after 18 h with compound and polymyxin B; higher = more bacterial growth (less inhibition)
Conditions: 50 µM, Mueller-Hinton broth

`COc1ccc(OC2CCN(C3CCCC3)CC2)c(C(=O)NCC(C)(C)CO)c1` was tested. Which “bacterial growth OD600” value (polymyxin B 1 µg/mL) did it give?
The value was 0.874.

How did the “bacterial growth OD600” value (polymyxin B 0.75 µg/mL) turn out when `Cc1nc(C)c(CC(=O)N2CCCC(CNC(=O)c3ccc(F)cc3)C2)c(O)n1` (stereo unspecified) was run?
Its value is 0.815.

`Cc1cccc(C(=O)N2CCC(C3(c4ccccn4)NC(=O)N(CCc4cccs4)C3=O)CC2)c1` (stereo unspecified) was tested. Which “bacterial growth OD600” value (polymyxin B 0.75 µg/mL) did it give?
The value was 1.01.

With `Fc1ccccc1-c1noc(-c2ccc(N3CCc4[nH]ncc4C3)nc2)n1` as the compound, how does the “bacterial growth OD600” value (polymyxin B 1 µg/mL) read?
Its value is 0.517.

Which “bacterial growth OD600” value (polymyxin B 0.75 µg/mL) does the source give for `COc1cccc(-c2cnc(-c3ccncc3)nc2C2CCN(Cc3ccc(N(C)C)cc3)CC2)c1` here?
Its value is 0.646.

With `COc1ccc(OC2CCN(C(=O)C3CC3)CC2)c(C(=O)N(C)Cc2ccc(C)cc2)c1` as the compound, how does the “bacterial growth OD600” value (polymyxin B 1 µg/mL) read?
The value was 0.584.

With `Cc1ccc(OCc2cc(C(=O)N3CCC(Cc4ccccc4)CC3)no2)cn1` as the compound, how does the “bacterial growth OD600” value (polymyxin B 1 µg/mL) read?
Its value is 0.707.

`CC(C)CCN(C)c1ccc(C(=O)N2CCCN(c3ncccn3)CC2)cn1` was tested. Which “bacterial growth OD600” value (polymyxin B 0.75 µg/mL) did it give?
Its value is 0.573.

How did the “bacterial growth OD600” value (polymyxin B 0.75 µg/mL) turn out when `COc1cc(CN2CCC3(CC2)c2ccccc2[C@@H](NC(=O)Cc2cccs2)[C@@H]3OC)ccc1O` was run?
Its value is 0.792.

`CC(NC(=O)CCC1(Cc2ccco2)CCC(=O)N1)c1ccccc1Cl` (stereo unspecified) was tested. Which “bacterial growth OD600” value (polymyxin B 0.75 µg/mL) did it give?
Its value is 0.856.

For `COc1ccccc1OC1CCN([C@H]2CN(S(=O)(=O)c3ccccc3)C[C@@H]2O)CC1`, which “bacterial growth OD600” value (polymyxin B 1 µg/mL) is on record?
Its value is 0.975.

How did the “bacterial growth OD600” value (polymyxin B 0.75 µg/mL) turn out when `CCCN(CC1CC1)C(=O)CC1(c2ccccc2OC)CC(=O)N(CCCOC)C1=O` (stereo unspecified) was run?
The value was 0.509.

Which “bacterial growth OD600” value (polymyxin B 1 µg/mL) does the source give for `COC(c1ccccc1)c1nnc(CCC(=O)NCc2cc(F)ccc2C)o1` (stereo unspecified) here?
The value was 0.894.

For `Cc1ccccc1CC(=O)NCc1nc(-c2ccc(NC(=O)Cc3ccccc3)cc2)oc1C`, which “bacterial growth OD600” value (polymyxin B 0.75 µg/mL) is on record?
Its value is 0.845.

`COc1ccc(C(=O)N2CCCC2)c(OC2CCN(C(C)C)CC2)c1` was tested. Which “bacterial growth OD600” value (polymyxin B 1 µg/mL) did it give?
The value was 0.864.

Which “bacterial growth OD600” value (polymyxin B 1 µg/mL) does the source give for `O=C(NCc1cccnc1Oc1ccc(F)c(F)c1)c1cc[n+]([O-])cc1` here?
Its value is 1.29.

`CCC1C(=O)N(C)CCN1c1ccc(-c2nc(C(C)C)no2)cn1` (stereo unspecified) was tested. Which “bacterial growth OD600” value (polymyxin B 0.75 µg/mL) did it give?
The value was 0.93.

Which “bacterial growth OD600” value (polymyxin B 1 µg/mL) does the source give for `CCOC(=O)C1CCN(Cc2cn(C)nc2-c2cccc(Cl)c2)CC1` here?
The value was 0.962.

`C=C(C)CNC(=O)C1CCCN(C2CCN(c3nc4ccccc4o3)CC2)C1` (stereo unspecified) was tested. Which “bacterial growth OD600” value (polymyxin B 0.75 µg/mL) did it give?
Its value is 0.771.

How did the “bacterial growth OD600” value (polymyxin B 1 µg/mL) turn out when `O=C(Nc1ccc2c(c1)CN(C(=O)c1ccc3c(c1)OCO3)CC2)c1ccccc1Cl` was run?
Its value is 0.768.

How did the “bacterial growth OD600” value (polymyxin B 1 µg/mL) turn out when `CCN(CC1CCN(CCc2ccccc2C)CC1)C(=O)CCC(=O)OC` was run?
The value was 1.05.

How did the “bacterial growth OD600” value (polymyxin B 0.75 µg/mL) turn out when `Cc1ccccc1-c1cnc(-c2ccncc2)nc1C1CCCN(Cc2ccc(F)c(F)c2)C1` (stereo unspecified) was run?
The value was 0.002.

With `CN(C)c1ncc2c(n1)CCCC2NCc1ccccc1-c1ccco1` (stereo unspecified) as the compound, how does the “bacterial growth OD600” value (polymyxin B 1 µg/mL) read?
The value was 0.787.

`Cc1cc(C)n(CC(=O)NC2CC(C)(C)Cc3nc(N4CCOCC4)ncc32)n1` (stereo unspecified) was tested. Which “bacterial growth OD600” value (polymyxin B 0.75 µg/mL) did it give?
Its value is 0.92.

How did the “bacterial growth OD600” value (polymyxin B 0.75 µg/mL) turn out when `CC(=O)Nc1ccc(CN2CCC(c3cccc(F)c3)Sc3ccccc32)cc1` (stereo unspecified) was run?
Its value is 0.005.

How did the “bacterial growth OD600” value (polymyxin B 1 µg/mL) turn out when `CN(C(=O)CC(c1ccccc1)c1ccc(Cl)cc1)C1CCOCC1` (stereo unspecified) was run?
The value was 0.17.

`CCOC(=O)CCNC(=O)NC1CCCN(C2CCCCCC2)C1` (stereo unspecified) was tested. Which “bacterial growth OD600” value (polymyxin B 0.75 µg/mL) did it give?
Its value is 0.86.

`COc1ccc(-c2nn(-c3ccccc3C)cc2CN2CCCO2)cc1F` was tested. Which “bacterial growth OD600” value (polymyxin B 1 µg/mL) did it give?
Its value is 0.005.

For `C=CCC(=O)N1CCCC(N2CCN(c3cccc(C(F)(F)F)c3)CC2)C1` (stereo unspecified), which “bacterial growth OD600” value (polymyxin B 1 µg/mL) is on record?
The value was 0.824.

`CN(C)c1ncc2c(n1)CCCC2NC(=O)C1CC1` (stereo unspecified) was tested. Which “bacterial growth OD600” value (polymyxin B 0.75 µg/mL) did it give?
The value was 0.82.

How did the “bacterial growth OD600” value (polymyxin B 0.75 µg/mL) turn out when `CC(=O)NCCNC(=O)CC(c1ccccc1)c1ccc2c(c1)OCO2` (stereo unspecified) was run?
The value was 0.87.
